From article PMC5910400

The chains behind the UniProt entries cited, without tags or fusion partners. Where a name states a change or a piece, a line headed by the entry shows the natural chain unless it says otherwise.
UniProt Q99616: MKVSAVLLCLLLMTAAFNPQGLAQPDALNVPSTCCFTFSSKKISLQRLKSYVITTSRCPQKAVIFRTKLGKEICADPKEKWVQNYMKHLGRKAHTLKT
UniProt P78423: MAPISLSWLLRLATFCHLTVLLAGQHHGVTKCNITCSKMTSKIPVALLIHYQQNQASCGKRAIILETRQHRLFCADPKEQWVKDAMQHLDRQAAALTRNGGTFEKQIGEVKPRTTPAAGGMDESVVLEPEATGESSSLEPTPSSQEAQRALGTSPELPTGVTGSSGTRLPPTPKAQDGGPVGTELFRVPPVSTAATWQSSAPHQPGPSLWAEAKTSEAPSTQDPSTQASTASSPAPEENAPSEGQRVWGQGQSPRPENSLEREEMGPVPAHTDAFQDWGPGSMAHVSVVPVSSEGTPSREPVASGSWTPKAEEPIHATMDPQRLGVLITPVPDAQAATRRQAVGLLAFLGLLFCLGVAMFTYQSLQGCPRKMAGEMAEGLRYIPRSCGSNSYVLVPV

What was measured:
[1] = biological target: T1, P1243 (evasin from Amblyomma americanum), purified, C-terminal StrepII:8xHis tag (Amblyomma americanum); test: BLI; titration; evasin immobilised on the sensor through the C-terminal His tag; chemokine 300 nM to 0.4 nM (CXCL2: 600 nM to […]), at least five concentrations; non-interacting reference protein; one-site binding fit or steady state analysis; both purified
T1 sequence: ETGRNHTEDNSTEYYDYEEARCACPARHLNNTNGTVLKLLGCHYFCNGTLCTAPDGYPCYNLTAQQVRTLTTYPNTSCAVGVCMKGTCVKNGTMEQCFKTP

[2] = biological target: T2, P1156 (evasin from Ixodes ricinus), purified, C-terminal StrepII:His tag (Ixodes ricinus) (UniProt V5HBW0); test: BLI; cross-binding screen; His-tagged evasin immobilised on Ni-NTA biosensors (OctetRed); 300 nM chemokine; 30 °C; 10 mM Na2HPO4, 1.8 mM KH2PO4, 2.7 mM KCl, 500 mM NaCl, 0.1% BSA, 0.002% TWEEN-20, pH 7.4; single experiment; both purified
T2 sequence: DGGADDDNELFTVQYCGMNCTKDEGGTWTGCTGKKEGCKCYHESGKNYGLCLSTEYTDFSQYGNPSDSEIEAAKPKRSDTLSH

Substance	binding [1]	binding [2]
CCL13 (from UniProt Q99616) (ligand)	binds	–
CX3CL1 (from UniProt P78423) (ligand)	–	no binding (tested: 300 nM)

No constants are given. Whether binding was seen depends on the method and setting. For some assays here: Binding can be weak; no strength is given. Tags and fused reporters may be left off the sequences shown.
